Experimental data published in US20230190851A1, “PLANT COMPOUNDS FOR TREATING ALZHEIMER'S DISEASE” (RRW B.V., priority 2020, published 2023).
For at least one compound, name, drawing or mass did not settle the structure.

Tested on: C. elegans nematode strain with inducible amyloid-β accumulation (CL4176)
Assay: Alzheimer's disease paralysis assay, C. elegans strain with inducible amyloid-β accumulation
Assay type: in vivo
Conditions: strain CL4176, heat shock 25° C., counted approximately every 24 h; combination effect after 71 h, persisted for 95 h
Excerpt: These strains accumulate amyloid-β peptides that form plaques in the nematodes and lead to paralysis of the animals. In certain strains, such as strain CL4176, Aβ accumulation occurs only in response to heat shock. Thus, the Alzheimer's disease pattern is inducible in these strains. The number of paralyzed nematodes after a certain period of time following induction of Aβ accumulation indicates the extent of Alzheimer's disease. Thus, the effect of certain substances to which the nematodes are exposed on the number of paralyzed animals is a measure of the anti-Alzheimer effect of these substances.
Nematodes of strain CL4176 were synchronized at the young larval stage and allowed to grow to the L4 stage on normal growth medium for 72 h at 16° C. Then the nematodes were exposed to the test substance and the temperature was increased to 25° C. This heat shock induced Aβ accumulation, simulating the onset of Alzheimer's disease. Approximately every 24 h, the number of animals that were still mobile and those that were paralyzed as a result of Aβ accumulation was determined.

Compound: COc1cc(/C=C/C(=O)CC(=O)/C=C/c2ccc(O)c(OC)c2)ccc1O [curcumin, (E,E)-1,7-bis-(4-hydroxy-3-methoxyphenyl)-1,6-heptadiene-3,5,-dione]
- number of mobile / paralyzed animals after induction of Aβ accumulation: little change in the number of mobile animals
